Data taken from paper PMC3362529.
Results are given in words; binding and its absence hold for the method and conditions named. Binding seen in cells or lysates may run through a third protein. Some results given as binding are weak or reduced against the parent protein; the word gives no strength. Sequences can lack the tags named with a protein.

Molecular target: T1, GFP-DmRad1 (Drosophila) (UniProt Q9VQD4)
T1 sequence: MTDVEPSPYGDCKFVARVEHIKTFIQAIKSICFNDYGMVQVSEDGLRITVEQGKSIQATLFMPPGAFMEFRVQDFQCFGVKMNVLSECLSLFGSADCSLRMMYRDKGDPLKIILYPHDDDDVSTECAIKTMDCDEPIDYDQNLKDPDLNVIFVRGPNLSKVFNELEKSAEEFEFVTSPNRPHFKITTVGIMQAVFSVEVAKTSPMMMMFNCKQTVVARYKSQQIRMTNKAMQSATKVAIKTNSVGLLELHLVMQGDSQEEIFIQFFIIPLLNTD
Test: co-IP; HA-DmHus1, FLAG-DmRad9A and GFP-DmRad1 co-expressed in S2 cells; lysis buffer PBS, 1% Triton X-100, protease inhibitors; pre-cleared extracts incubated overnight at 4°C with anti-GFP rabbit antibodies, recovered on protein A-coated beads for 2 h at 4°C; western blots with anti-HA or …; normal rabbit IgG as negative control

- binding: binds
B1: FLAG-DmRad9A (protein, UniProt O96533 1-456)
chain: MKYTLEGSNARVIAKAVQSLSKVGKEMFIEIDQQSLQMRAINATQSAVGSISFKRSMFEVYDMPPHSDFYCKISMKGCLAVFRNMNEVEYCELNLLDNQTNLQVNLRCKLETTKEATISIIDDQNINTNINTDQMPNIIRGDHKLLTDISNNFNSSEEELTLEANSGSVVAKNYIEGARVNDKFMRTQLKLKPSEFEQYQVTKETVITFCIKEFRAFLLFAECLNASLTLEFDEAGMPFLLKIKKHGEIECLLIMSTLSPDDISFSEDYCQKDLTVQDEDVRAAAAKRKSSVSKPNVTNKRKGSSSEPAAVQPKRRVEETQLESSLDNPLFQFRDSEAPSVQHPRILAEVDTVVLIEDEAEQEALMLAAADAALEASMAPAPEPPNSTEVCFINTDDSQQPKPAKSSSDEDETIPQSPERPNKVLGVLLGLLQGCVSRLKTMLRLDEHLISGYELL
